# Percent effect of library compounds

Source: ChEMBL document CHEMBL3988442, “University of Dundee, Small-Polar-MMV Screening Library” (2021).

Values are the deposited “Percent Effect”, in %. The record does not define 0% and 100%; most values in the screen are far below 50% and negative numbers occur (in some assays of this library far below -100). The compounds are a random part of those screened.

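Whole-cell growth test on Mycobacterium tuberculosis, read after 4 days in a medium based on cholesterol and the lipid DPPC; the read-out is not stated. Tested at 500 µM. The record gives no direction; compounds that gave an IC50 in retests scored well above the rest, so higher reads as more growth inhibition. Size under these conditions: about 18,000 compounds, about 900 of them at 50% or above in at least one test.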

SMILES	effect
CN1CCCC2(CCN(C(=O)N3CCCC3)C2)C1=O (stereo not given)	-5.858
COCCOc1ccc(CN)cn1	-0.0743
COc1cc(C(=O)NCCC(C)C)cc(OC)c1OC	-2.821
CCN(CCCS(=O)(=O)NC)c1cccc(CO)c1	-8.836
CCCN(CC1CC1)S(=O)(=O)N1CC[C@@H](O)C1	17.55
COC(=O)C(C)N(c1cc(Cl)ccc1OC)S(C)(=O)=O (stereo not given)	13.62
CNCCCC(=O)Nc1cccc(-n2ccnc2)c1	44.24
CNC(=O)Cc1csc(NC(=O)c2cccs2)n1	-0.1557
Cc1cnn(CCNCc2ccc3c(c2)OCCO3)c1	77.27
Cc1noc(C)c1CCC(=O)N1C[C@@H](C)[C@@](C)(O)C1	10
NC(=O)CNCc1cc(O)c2cccc(Cl)c2n1	-0.5164
NC(c1ccncc1)C1(CO)CCC1 (stereo not given)	-8.956
CC(=O)Nc1nc(CS(=O)(=O)Cc2cc(C)on2)cs1	-5.147
NCc1ccc(CN2CCCCC2)cc1	-21.71
C1CC(C2CNC2)CCO1	-18.17
Nc1ccc(C(=O)N2CCN(C3CC3)CC2)cn1	6.927
COCCOCC1CCN(Cc2ccc(C#N)cc2)C1 (stereo not given)	28.45
CCC(=O)N1CCN(S(=O)(=O)c2ccc(C)s2)CC1	11.83
CC(=O)Nc1ccc(C(=O)OC2CCCCC2=O)s1 (stereo not given)	-5.155
CN(C(=O)c1ccc2c(c1)NC(=O)CS2)C1CCCC1	3.25
CC(C)(C)c1nc(CN2CCCC(CN)C2)no1 (stereo not given)	8.481
O=C(NCc1ccc(-n2cncn2)nc1)c1ccsc1	-9.08
CCCn1nnc(NCc2ccc(OC)cc2)n1	76.83
CCN1CCN(C2CCNCC2)CC1	-7.621
CC(CN)c1ccc(F)cc1 (stereo not given)	-1.05
NCCC1CCN(c2ccncc2)CC1	-4.04
c1cncc(NCc2ccsc2)c1	29.01
Cn1cc(C(N)=O)c(NCc2ccc(F)c(C#N)c2)n1	9.666
CC(O)CCN(C)Cc1cscn1 (stereo not given)	4.229
CC1(CNC(=O)CCOc2ccccc2)COC1	14.93
CC(C)(C)CCC(N)C(N)=O (stereo not given)	16.58
Cn1cc(NC(=O)c2ccc(O)nc2)cc(Br)c1=O	-49.67
CN1CCCN(C(=O)c2ccc3ccccc3n2)CC1	4.081
CCN(CCO)Cc1cc(=O)n2cc(C)ccc2n1	-14.38
c1ccc2[nH]c(NCC3CCCO3)nc2c1 (stereo not given)	63.81
NC(=O)c1csc(C(=O)Nc2cnn(CC(F)F)c2)c1	-4.493
CN(C)C(=O)CN(C)C(=O)Cc1cccs1	2.248
Cc1c[nH]c(=O)c(CN)c1	-14.69
COCCOc1ccc(NC(=O)OCC(F)(F)F)cn1	70.46
CC(=O)c1ccc(C(=O)NC(C)c2n[nH]c(=O)[nH]2)s1 (stereo not given)	9.708
Cc1ccc2c(n1)OCCN2C(=O)C1CCOCC1	-5.187
COCCn1c(SCC(=O)NC(N)=O)nc(C)c1C	4.549
O=C(c1ccccc1)N1CC(O)C1	-17.03
CN(CC=Cc1ccc(F)cc1)CC(N)=O	16.81
CCNC(=O)C(C)Nc1ccc(C)cc1C (stereo not given)	19.62
Cc1ccnc(NS(=O)(=O)N2CCCCCC2)c1	4.507
NC(=O)CC1CCCN1 (stereo not given)	-0.5831
N#CCOc1ccc(NC(=O)c2ccncc2)cc1	7.336
O=C1CC2(CCCNC2)CN1 (stereo not given)	5.646
O=C(CCc1ccc2[nH]ccc2c1)N1CCOCC1	11.18
Cc1n[nH]cc1CNC(=O)CSCc1c(C)noc1C	0.6887
CCC1(C(=O)NCC2CCCNC2)CCCC1 (stereo not given)	-8.143
Fc1ccc(CNCCn2cccn2)cc1	19.11
COc1ccccc1C1CCN(C(=O)CCCN)C1 (stereo not given)	22.91
CCC(OC)C(=O)N1CC(Oc2ccccc2F)C1 (stereo not given)	33.91
CSCCOC(=O)c1ccc2nncn2c1	1.886
Cc1noc(CN)n1	21.09
NCCC1CCN(C(=O)Nc2cc(F)cc(F)c2)CC1	31.19
O=c1ccn(Cc2nc(-c3ccc(Br)o3)no2)c(=O)[nH]1	-7.415
CC1(C)CC(=O)CN1C(=O)c1cc(Cl)c2c(c1)OCO2	7.262
CCc1cc(C(=O)NC(CC)[C@H]2C[C@H](O)C2)cc(=O)[nH]1 (stereo not given in full)	-5.366
COc1ccccc1NC(=O)NC(C)C	-15.5
O=C(N1CCCC(O)C1)C1(O)Cc2ccccc2C1 (stereo not given)	8.018
Cc1ccc(CNCc2cc[nH]n2)c(N2CCCC2)n1	17.49
CCN(CC)Cc1ccccc1NCC(=O)N(C)C	-0.2119
CCC(O)(CC)C(C)(C)CN	0.4319
NC1CCN(c2cccs2)CC1	8.506
CN(Cc1cn(-c2ccc(Cl)c(Cl)c2)nn1)S(C)(=O)=O	2.901
COc1cc(CC(=O)NCCNC(C)=O)ccc1C	-1.035
O=C(Nc1ccccc1)C1CCCN1 (stereo not given)	-8.606
CCCn1ccc(NC(=O)NC(C)C)n1	44.09
O=C1NCCN2CC3(CCNCC3)CC12 (stereo not given)	2.852
Cc1cc(Br)oc1C(=O)Nc1ncccc1O	75.41
Cc1noc(C)c1CCC(=O)N(C)Cc1ccncc1	19.14
CC(NC(=O)OC(C)(C)C)C1CCNCC1 (stereo not given)	4.002
CNC(=O)C1CCCCN1CCCc1cccnc1 (stereo not given)	-8.824
CSCC(C)(O)CNC(=O)c1cccc(N(C)C)c1 (stereo not given)	-21.17
OCc1scnc1Cl	-12.77
CCn1cnnc1C1CNCCO1 (stereo not given)	-2.905
COc1cc(C)c(C(C)N)cc1OC (stereo not given)	5.515
CNC(=O)NC(=O)CNc1cc2c(cc1Cl)OCCO2	-37.01
Cc1cccc2[nH]cc(CO)c12	15
Cc1ccc(CNC(C)Cn2cncn2)o1 (stereo not given)	2.61
CN(CC(O)C(F)(F)F)C(=O)c1cccc(C#N)c1 (stereo not given)	10.9
OC1(Cc2ccncc2)CCNCC1	-8.951
CC(=O)Nc1ncc(Br)s1	-0.4927
CCC(=O)N1CCCN(C(=O)C2(N)CCCCC2)CC1	15.24
O=C(NC1CCN(c2ccccc2)CC1)c1cnc[nH]1	-11.09
Cc1n[nH]/c(=N\C(=O)c2csc(NC3CC3)n2)s1	9.231

5 of the entries, repeated:

- O=C(NCc1ccc(-n2cncn2)nc1)c1ccsc1 : -9.08%
- CCC(=O)N1CCCN(C(=O)C2(N)CCCCC2)CC1 : 15.24%
- c1ccc2[nH]c(NCC3CCCO3)nc2c1 (stereo not given) : 63.81%
- CC(O)CCN(C)Cc1cscn1 (stereo not given) : 4.229%
- CSCCOC(=O)c1ccc2nncn2c1 : 1.886%